Source: patent publication US20220049002A1
No constants are given. Whether binding was seen depends on the method and setting. Some binding calls cover weakened binding; strength is not graded here.

T1: Canine IL4R (extracellular domains produced by 293 cells; Examples 16-19) (canine)
T1 sequence (chain, biotinylated): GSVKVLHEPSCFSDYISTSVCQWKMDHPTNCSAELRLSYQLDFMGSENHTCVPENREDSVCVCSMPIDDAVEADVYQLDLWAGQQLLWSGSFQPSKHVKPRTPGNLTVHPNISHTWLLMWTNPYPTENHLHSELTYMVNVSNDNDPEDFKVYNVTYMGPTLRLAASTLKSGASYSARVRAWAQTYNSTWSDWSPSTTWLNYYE


Molecular target: T1, Canine IL4R (extracellular domains produced by 293 cells; Examples 16-19) (canine)
Assay: neutralization (canine IL4-blocking) ELISA

binding	Binder
binds	M3 mouse monoclonal antibody (anti-canine IL4R) (antibody, V domains shown) VH: QVQLKESGPGLVAPSQSLSITCTVSGFSLSRYSVHWVRQPPGKGLEWLGMIWGGGSTDYNSVFKSRLSISKDNSKSQVFLKMNSLQTDDTAMYYCARTYRGYALDYWGQGTSVTVSS VL: DIQMTQTTSSLSASLGDRVTISCRASQDISNYLNWYQQKPDGTVKLLIYYTSRLQSGVPSRFSGSGSGTDYCLTISNLEQEDIATYFCQQANTLPLTFGSGTKLELK
binds	M5 mouse monoclonal antibody (anti-canine IL4R) (antibody, V domains shown) VH: QVQLKESGPGLVAPSQSLSITCTVSGFSLSRYSVHWVRQPPGKGLEWLGMIWGGGSTDYNSVFKSRLSISKDNSKSQVFLKMNSLQTDDTAMYYCARTYRGYALDYWGQGTSVTVSS VL: DIQMTQTTSSLSASLGDRVTISCRASQDISNYLNWYQQKPDGTVKLLIYYTSRLQSGVPSRFSGSGSGTDYCLTISNLEQEDIATYFCQQANTLPLTFGSGTKLELK
binds	M8 mouse monoclonal antibody (anti-canine IL4R) (antibody, V domains shown) VH: QVQLQQSGPELVKPGALVKISCKASGYTFTSYDINWVKQRPGQGLEWIGWIYPGDGSTKYNEKFKGKATLTADKSSSTAYMQLSSLTSEDSAVYFCARSSFVVWGAGTTVTVSS VL: DIQMTQSSSYLSVSLGGRVTITCKASDPINNWLAWYQQKPGNAPRLLISGATSLETGVPSRISGSGSGKDYSLSITSLQTEDIATYYCHQYWSIPYTFGGGTKLEIK
binds	M9 mouse monoclonal antibody (anti-canine IL4R) (antibody, V domains shown) VH: DVQLVESGGGLVQPGGSRKLSCAASGFTFSSFGMHWVRQAPEKGLEWVAYIRSDSSTIYYADTVKGRFTISRDNPKNTLFLQMTSLRSEDTAMYYCARSGYYGSFSLTYWGQGTLVTVSA VL: EIVLTQSPTTMAASPGEKITITCSASSSVSSNYLHWYQQKPGFSPKLLIYRTSNLPSGVPARFFGSGSGTSYSLTIGTMEAEDVATYYCQQGSGMLTFGAGTKLELK
